According to paper PMC12475165:
No constants are given. Whether binding was seen depends on the method and setting. Binding seen in cells or lysates may run through a third protein. Here binding means that the protein was enriched with, or labelled near, the bait; the list need not be complete.

By UniProt entry, the sequences of proteins in these tests, tags left out.
UniProt Q05322: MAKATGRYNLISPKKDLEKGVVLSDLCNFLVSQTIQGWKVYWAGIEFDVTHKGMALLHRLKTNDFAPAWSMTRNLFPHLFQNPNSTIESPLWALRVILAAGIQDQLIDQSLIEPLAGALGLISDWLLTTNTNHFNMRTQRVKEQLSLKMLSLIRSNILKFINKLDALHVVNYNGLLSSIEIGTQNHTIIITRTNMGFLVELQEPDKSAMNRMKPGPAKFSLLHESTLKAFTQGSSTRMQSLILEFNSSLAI
UniProt Q9BUI4: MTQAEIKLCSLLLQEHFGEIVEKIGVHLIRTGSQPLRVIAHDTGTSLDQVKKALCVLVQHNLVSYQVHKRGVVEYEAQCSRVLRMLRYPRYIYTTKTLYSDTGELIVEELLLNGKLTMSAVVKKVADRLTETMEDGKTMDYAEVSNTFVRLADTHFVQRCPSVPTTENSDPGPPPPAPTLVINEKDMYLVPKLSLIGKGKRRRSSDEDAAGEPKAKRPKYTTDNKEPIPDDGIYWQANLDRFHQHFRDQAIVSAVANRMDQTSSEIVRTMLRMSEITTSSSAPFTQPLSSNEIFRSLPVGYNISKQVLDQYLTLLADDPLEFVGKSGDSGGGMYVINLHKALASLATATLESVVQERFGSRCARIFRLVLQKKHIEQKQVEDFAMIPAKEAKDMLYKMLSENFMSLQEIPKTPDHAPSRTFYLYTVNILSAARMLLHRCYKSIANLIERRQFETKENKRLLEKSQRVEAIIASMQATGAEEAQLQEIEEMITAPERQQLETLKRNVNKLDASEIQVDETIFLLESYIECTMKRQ
UniProt O15131: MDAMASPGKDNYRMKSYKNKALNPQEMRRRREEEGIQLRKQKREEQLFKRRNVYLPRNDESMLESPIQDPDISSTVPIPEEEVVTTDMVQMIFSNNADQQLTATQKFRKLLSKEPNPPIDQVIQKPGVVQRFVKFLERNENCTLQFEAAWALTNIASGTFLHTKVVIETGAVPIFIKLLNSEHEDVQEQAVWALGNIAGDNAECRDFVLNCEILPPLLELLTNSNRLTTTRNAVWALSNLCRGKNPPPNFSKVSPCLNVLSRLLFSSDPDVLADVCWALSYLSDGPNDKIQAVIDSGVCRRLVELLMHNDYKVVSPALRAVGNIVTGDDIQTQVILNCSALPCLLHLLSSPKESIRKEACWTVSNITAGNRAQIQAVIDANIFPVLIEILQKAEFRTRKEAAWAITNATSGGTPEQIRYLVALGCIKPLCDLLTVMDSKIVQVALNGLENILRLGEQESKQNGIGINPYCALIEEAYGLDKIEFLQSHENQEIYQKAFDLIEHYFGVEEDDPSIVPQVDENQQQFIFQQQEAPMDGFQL
UniProt P18272: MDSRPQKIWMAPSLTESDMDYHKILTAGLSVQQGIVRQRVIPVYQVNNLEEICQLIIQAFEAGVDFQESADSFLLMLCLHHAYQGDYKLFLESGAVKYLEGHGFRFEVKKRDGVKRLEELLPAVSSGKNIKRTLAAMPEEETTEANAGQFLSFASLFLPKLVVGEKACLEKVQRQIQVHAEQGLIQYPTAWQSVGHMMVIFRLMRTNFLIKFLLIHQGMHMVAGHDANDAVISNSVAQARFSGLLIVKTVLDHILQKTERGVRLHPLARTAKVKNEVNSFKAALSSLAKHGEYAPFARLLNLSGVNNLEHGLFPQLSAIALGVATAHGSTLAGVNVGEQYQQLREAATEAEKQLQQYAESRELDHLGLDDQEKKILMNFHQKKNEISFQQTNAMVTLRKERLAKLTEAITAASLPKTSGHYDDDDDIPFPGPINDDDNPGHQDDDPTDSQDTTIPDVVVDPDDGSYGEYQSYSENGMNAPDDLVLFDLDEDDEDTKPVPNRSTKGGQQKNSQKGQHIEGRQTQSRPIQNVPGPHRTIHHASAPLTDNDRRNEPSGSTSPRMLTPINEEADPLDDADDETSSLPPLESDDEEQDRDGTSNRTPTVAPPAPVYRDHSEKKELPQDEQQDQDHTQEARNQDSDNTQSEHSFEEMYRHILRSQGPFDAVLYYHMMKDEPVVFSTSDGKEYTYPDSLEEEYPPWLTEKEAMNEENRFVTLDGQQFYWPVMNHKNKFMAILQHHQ
UniProt P63151: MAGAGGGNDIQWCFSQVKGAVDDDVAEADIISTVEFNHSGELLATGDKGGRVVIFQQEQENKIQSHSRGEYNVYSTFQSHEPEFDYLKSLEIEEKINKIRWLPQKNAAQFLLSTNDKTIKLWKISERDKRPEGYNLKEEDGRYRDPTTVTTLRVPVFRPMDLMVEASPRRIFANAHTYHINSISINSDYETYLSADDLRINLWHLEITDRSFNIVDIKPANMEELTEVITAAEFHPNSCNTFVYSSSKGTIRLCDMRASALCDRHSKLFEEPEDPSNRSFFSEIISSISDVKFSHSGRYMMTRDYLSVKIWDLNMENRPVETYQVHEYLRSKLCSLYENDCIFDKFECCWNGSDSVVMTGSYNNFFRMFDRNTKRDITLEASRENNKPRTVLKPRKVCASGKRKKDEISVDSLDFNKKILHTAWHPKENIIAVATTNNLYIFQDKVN
UniProt Q05127: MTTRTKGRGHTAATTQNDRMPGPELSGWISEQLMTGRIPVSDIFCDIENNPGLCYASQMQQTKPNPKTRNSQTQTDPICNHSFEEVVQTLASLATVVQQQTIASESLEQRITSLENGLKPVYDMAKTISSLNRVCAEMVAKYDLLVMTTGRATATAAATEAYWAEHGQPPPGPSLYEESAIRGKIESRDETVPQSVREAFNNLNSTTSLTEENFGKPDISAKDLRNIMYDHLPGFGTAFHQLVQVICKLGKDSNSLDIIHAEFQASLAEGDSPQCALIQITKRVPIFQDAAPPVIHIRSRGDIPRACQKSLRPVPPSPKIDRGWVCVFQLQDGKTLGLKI
UniProt Q8ND56: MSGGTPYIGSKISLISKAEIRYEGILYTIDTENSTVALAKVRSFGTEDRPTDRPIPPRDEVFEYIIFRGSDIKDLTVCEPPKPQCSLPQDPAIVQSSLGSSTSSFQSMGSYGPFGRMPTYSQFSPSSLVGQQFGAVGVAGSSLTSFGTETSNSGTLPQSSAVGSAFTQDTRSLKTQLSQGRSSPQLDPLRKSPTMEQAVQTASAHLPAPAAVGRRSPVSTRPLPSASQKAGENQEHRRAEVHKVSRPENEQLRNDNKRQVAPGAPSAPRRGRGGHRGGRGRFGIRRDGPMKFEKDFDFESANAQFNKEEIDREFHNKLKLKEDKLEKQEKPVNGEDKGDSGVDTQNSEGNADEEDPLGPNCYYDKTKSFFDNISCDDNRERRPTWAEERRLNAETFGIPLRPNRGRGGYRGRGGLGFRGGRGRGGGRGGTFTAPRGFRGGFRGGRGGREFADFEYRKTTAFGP
UniProt Q9BX40: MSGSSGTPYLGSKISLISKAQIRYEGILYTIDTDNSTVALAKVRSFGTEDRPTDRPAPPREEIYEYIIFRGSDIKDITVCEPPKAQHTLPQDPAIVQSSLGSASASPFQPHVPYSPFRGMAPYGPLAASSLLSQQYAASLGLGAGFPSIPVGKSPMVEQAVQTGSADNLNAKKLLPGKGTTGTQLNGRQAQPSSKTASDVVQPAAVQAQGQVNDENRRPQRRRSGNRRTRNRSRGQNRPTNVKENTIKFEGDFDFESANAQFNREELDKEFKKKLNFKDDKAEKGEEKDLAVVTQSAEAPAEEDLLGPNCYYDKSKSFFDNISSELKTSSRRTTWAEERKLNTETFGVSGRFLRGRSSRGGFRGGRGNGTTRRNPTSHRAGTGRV
UniProt Q8IZH2: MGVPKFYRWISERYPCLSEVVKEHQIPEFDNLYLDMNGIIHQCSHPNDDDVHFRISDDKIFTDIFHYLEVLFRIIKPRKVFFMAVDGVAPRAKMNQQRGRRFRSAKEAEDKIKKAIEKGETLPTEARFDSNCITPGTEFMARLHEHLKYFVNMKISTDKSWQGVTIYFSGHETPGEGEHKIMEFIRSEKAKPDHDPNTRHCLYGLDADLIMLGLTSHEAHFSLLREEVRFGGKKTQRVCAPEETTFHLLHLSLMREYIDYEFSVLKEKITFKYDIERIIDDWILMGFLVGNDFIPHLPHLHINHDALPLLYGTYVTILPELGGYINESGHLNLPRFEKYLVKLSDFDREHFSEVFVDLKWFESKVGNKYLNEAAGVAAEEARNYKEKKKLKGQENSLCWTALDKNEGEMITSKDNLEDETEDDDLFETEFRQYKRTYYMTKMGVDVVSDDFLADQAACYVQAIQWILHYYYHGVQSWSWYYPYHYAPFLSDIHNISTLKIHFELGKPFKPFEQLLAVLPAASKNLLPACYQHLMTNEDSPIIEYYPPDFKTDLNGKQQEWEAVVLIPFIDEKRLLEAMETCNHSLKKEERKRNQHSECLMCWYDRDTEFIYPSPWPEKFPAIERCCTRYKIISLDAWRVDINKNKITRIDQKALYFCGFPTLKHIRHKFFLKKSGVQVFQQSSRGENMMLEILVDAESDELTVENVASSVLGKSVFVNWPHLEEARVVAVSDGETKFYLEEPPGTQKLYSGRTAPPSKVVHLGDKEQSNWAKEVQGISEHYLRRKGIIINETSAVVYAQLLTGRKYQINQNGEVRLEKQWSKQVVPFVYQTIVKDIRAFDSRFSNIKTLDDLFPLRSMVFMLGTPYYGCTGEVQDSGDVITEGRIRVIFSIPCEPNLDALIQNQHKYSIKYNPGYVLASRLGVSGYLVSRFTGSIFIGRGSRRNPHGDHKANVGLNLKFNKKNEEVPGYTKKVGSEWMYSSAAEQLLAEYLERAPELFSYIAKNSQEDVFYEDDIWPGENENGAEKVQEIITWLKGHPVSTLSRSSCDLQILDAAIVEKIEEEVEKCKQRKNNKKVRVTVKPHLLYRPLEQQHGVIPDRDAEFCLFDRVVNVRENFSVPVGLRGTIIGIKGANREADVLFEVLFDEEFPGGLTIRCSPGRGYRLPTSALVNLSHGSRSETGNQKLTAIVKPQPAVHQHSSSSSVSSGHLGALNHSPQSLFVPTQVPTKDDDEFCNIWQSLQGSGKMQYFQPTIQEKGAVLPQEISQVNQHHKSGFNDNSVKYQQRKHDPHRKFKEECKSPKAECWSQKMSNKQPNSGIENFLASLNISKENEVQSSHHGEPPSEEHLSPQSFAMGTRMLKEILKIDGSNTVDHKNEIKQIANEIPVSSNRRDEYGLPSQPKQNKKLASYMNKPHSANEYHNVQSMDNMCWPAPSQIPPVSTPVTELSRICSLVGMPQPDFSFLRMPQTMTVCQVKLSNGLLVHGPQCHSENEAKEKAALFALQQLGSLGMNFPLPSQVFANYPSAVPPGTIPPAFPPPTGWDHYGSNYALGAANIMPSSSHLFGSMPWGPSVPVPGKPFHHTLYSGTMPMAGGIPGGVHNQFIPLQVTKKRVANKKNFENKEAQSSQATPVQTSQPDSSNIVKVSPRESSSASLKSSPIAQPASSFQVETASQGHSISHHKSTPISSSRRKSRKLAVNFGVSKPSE
UniProt P63167: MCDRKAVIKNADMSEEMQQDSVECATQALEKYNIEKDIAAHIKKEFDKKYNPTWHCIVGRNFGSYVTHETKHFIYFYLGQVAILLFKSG
UniProt Q05323: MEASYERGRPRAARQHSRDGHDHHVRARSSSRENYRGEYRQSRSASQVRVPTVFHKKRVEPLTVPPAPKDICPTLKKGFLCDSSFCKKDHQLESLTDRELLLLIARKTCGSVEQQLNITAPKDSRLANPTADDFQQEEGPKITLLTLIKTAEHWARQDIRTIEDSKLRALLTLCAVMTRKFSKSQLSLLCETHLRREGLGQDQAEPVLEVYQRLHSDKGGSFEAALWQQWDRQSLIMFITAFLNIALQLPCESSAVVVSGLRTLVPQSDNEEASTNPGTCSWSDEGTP
UniProt P78362: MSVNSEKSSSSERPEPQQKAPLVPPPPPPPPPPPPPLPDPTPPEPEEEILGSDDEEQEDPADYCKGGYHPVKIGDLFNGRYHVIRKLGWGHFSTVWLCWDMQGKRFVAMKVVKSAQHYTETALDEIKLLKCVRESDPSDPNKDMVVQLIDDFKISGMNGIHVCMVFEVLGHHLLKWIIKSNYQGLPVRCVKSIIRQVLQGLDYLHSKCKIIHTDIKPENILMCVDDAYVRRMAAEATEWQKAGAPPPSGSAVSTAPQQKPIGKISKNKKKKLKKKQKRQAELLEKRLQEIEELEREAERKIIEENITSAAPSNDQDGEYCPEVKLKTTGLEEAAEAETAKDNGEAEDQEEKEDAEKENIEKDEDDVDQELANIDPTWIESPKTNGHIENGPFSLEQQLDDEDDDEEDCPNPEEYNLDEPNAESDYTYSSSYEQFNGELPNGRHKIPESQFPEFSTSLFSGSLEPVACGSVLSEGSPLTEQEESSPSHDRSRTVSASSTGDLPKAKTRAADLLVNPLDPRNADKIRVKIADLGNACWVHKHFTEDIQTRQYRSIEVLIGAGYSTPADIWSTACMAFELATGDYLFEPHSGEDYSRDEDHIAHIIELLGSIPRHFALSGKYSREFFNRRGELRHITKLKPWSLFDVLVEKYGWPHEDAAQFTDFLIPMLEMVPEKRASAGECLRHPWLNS

Target: BioID2-tagged EBOV VP24 (N- and C-terminal tagged constructs) (Ebola virus (EBOV)) (UniProt Q05322)
Assay: proximity labelling

| Substance | binding |
| --- | --- |
| POLR3C, an RNA polymerase III subunit (from UniProt Q9BUI4 1-534) | binds |
| karyopherin protein KPNA1 (from UniProt P52294 1-538) | binds |
| karyopherin protein KPNA5 (from UniProt O15131 1-539) | binds |
| karyopherin protein KPNA6 (from UniProt O60684 1-536) | binds |
| nucleoporin protein NUP62 (from UniProt P37198 1-522) | binds |

Target: BioID2-tagged EBOV NP (N- and C-terminal tagged constructs) (Ebola virus (EBOV)) (UniProt P18272)
Assay: proximity labelling

| Substance | binding |
| --- | --- |
| MARF1 (from UniProt Q9Y4F3 1-1742) | binds |
| protein phosphatase 2 regulatory subunit B alpha (PPP2R2A) (from UniProt P63151 1-447) | binds |

Target: N-terminal BioID2-tagged EBOV VP35 (Ebola virus (EBOV)) (UniProt Q05127)
Assay: proximity labelling

| Substance | binding |
| --- | --- |
| LSM14A (from UniProt Q8ND56 1-463) | binds |
| LSM14B (from UniProt Q9BX40 1-385) | binds |
| MARF1 (from UniProt Q9Y4F3 1-1742) | binds |
| XRN1 (from UniProt Q8IZH2 1-1706) | binds |
| dynein light chain LC8-type 1 (DYNLL1) (from UniProt P63167 1-89) | binds |

Target: N-terminal BioID2-tagged EBOV VP30 (Ebola virus (EBOV)) (UniProt Q05323)
Assay: proximity labelling

| Substance | binding |
| --- | --- |
| RBBP6 (from UniProt Q7Z6E9 1-1792) | binds |
| SRPK2 (from UniProt P78362 1-688) | binds |
